Assay results reported in patent publication US6281331 (dated 2001).

Test: general procedure: hybrid (solid and solution phase) peptide synthesis; 2-chlorotrityl chloride resin (super acid sensitive); HBTU/HOBT/DIEA (solid phase); HBTU/HOAT/EtPr2N (solution phase)
Conditions: late stage modification step

H-Glu(OtBu)-Lys(Boc)-Asn(trt)-Glu(OtBu)-Gln(trt)-Glu(OtBu) -Leu-Leu-Glu(OtBu)-Leu-Asp(tBu)-Lys(Boc)-Trp(Boc)-Ala -Ser(tBu)-Leu-Trp(Boc)-Asn(trt)-Trp(Boc)-NH2 (SEQ ID NO:19)
final HPLC purity (HPLC): >95% | step yield (run 1): 97.5% | step yield (run 2): 96.6%
